Measurements reported in paper doi:10.1101/2022.01.12.476021.
No constants are given. Whether binding was seen depends on the method and setting. Binding seen in cells or lysates may run through a third protein. Here binding means that the protein was enriched with, or labelled near, the bait; the list need not be complete.

Sequences of proteins named here, by UniProt entry; tags and fusion partners are left off.
UniProt P0AG99: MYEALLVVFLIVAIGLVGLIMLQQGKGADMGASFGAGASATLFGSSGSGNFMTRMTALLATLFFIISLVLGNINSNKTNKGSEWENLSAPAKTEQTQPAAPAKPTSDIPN

B1: YajG (protein, UniProt P0ADA5 18-192)
chain: CAKPPTTIEVSPTITLPQQDPSLMGVTVSINGADQRTDQALAKVTRDNQIVTLTASRDLRFLLQEVLEKQMTARGYMVGPNGPVNLQIIVSQLYADVSQGNVRYNIATKADIAIIATAQNGNKMTKNYRASYNVEGAFQASNKNIADAVNSVLTDTIADMSQDTSIHEFIKQNAR
B2: YiaD (protein, UniProt P37665 21-219)
chain: CTTNPYTGEREAGKSAIGAGLGSLVGAGIGALSSSKKDRGKGALIGAAAGAALGGGVGYYMDVQEAKLRDKMRGTGVSVTRSGDNIILNMPNNVTFDSSSATLKPAGANTLTGVAMVLKEYPKTAVNVIGYTDSTGGHDLNMRLSQQRADSVASALITQGVDASRIRTQGLGPANPIASNSTAEGKAQNRRVEITLSPL
B3: HflC (protein, UniProt P0ABC3 1-334)
chain: MRKSVIAIIIIVLVVLYMSVFVVKEGERGITLRFGKVLRDDDNKPLVYEPGLHFKIPFIETVKMLDARIQTMDNQADRFVTKEKKDLIVDSYIKWRISDFSRYYLATGGGDISQAEVLLKRKFSDRLRSEIGRLDVKDIVTDSRGRLTLEVRDALNSGSAGTEDEVTTPAADNAIAEAAERVTAETKGKVPVINPNSMAALGIEVVDVRIKQINLPTEVSEAIYNRMRAEREAVARRHRSQGQEEAEKLRATADYEVTRTLAEAERQGRIMRGEGDAEAAKLFADAFSKDPDFYAFIRSLRAYENSFSGNQDVMVMSPDSDFFRYMKTPTSATR

target: SecG (E. coli (endogenous in BL21 (DE3))) (UniProt P0AG99); experiment: affinity purification with mass spectrometry

binding	Binder
binds	B1
binds	B2
binds	B3
